PubChem BioAssay AID1259405 – NCATS – 2018
The deposit covers about 50,000 reagents; shown is a part drawn at random. About 4,000 of them (8%) were called active. 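Mouse siRNA library applied to hamster cells; one well for each siRNA.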 Unmarked entries are inactive. The numbers tell different reagents against one gene apart.

Assay: 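Knock-downs that lift recombinant protein yield in hamster ovary cells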 (primary screen)
System: Chinese hamster CHO-K1 ovary cells with stable secreted eGFP expression
Reagents: single siRNA against mouse genes, 0.8 pmol siRNA per well (2 µl of 400 nM stock)
Duration: 3 days
Measurement: 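Percent of the per-plate non-targeting control median for intracellular GFP per well by laser scanning cytometry and for cell viability by ATP luminescence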
Scale: GFP, % of control: higher = more GFP per well, higher productivity; viability (ATP), % of control: higher = more viable cells (more ATP)
Active means: 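Called active when intracellular GFP, relative to negative control, is at or above 120%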

For Aanat #1, what was measured?
GFP, % of control: 38.1; viability (ATP), % of control: 46.7

For Aanat #2, what does the deposit list?
GFP, % of control: 96.2; viability (ATP), % of control: 129

For Aanat #3, what does the deposit list?
GFP, % of control: 70.2; viability (ATP), % of control: 88.8

How did the screen score Top1mt #1?
GFP, % of control: 35.8; viability (ATP), % of control: 63.4

What did the screen give for Top1mt #2?
GFP, % of control: 56.3; viability (ATP), % of control: 68.2

What did the screen give for Top1mt #3?
GFP, % of control: 73.6; viability (ATP), % of control: 68.5

With Lactb #1, what does the deposit list?
GFP, % of control: 92.2; viability (ATP), % of control: 91.6

What is on record for Lactb #2?
GFP, % of control: 96.3; viability (ATP), % of control: 94.7

Which result is listed for Lactb #3?
GFP, % of control: 58.3; viability (ATP), % of control: 66.2

Which result is listed for Arf3 #1?
GFP, % of control: 85.6; viability (ATP), % of control: 108

For Arf3 #2, what does the deposit list?
GFP, % of control: 83.4; viability (ATP), % of control: 101

For Arf3 #3, what does the deposit list?
GFP, % of control: 94.6; viability (ATP), % of control: 133

With Casp6 #1, how do the results read?
GFP, % of control: 99; viability (ATP), % of control: 76.5

With Casp6 #2, how do the results read?
GFP, % of control: 49.4; viability (ATP), % of control: 67.4

With Casp6 #3, how do the results read?
GFP, % of control: 113; viability (ATP), % of control: 60.4

Which result is listed for Smurf1 #1?
GFP, % of control: 92.7; viability (ATP), % of control: 77.4

What is on record for Smurf1 #2?
GFP, % of control: 73.4; viability (ATP), % of control: 86.3

What did the screen give for Smurf1 #3?
GFP, % of control: 111; viability (ATP), % of control: 103

What is on record for Or8b3 #1?
GFP, % of control: 107; viability (ATP), % of control: 59.2

For Or8b3 #2, what was measured?
GFP, % of control: 58.2; viability (ATP), % of control: 50.9

How did the screen score Or8b3 #3?
GFP, % of control: 71.8; viability (ATP), % of control: 79.2

6 entries from above in another layout.
Arf3 #3
- GFP, % of control: 94.6
- viability (ATP), % of control: 133

Casp6 #1
- GFP, % of control: 99
- viability (ATP), % of control: 76.5

Casp6 #2
- GFP, % of control: 49.4
- viability (ATP), % of control: 67.4

Casp6 #3
- GFP, % of control: 113
- viability (ATP), % of control: 60.4

Smurf1 #1
- GFP, % of control: 92.7
- viability (ATP), % of control: 77.4

Smurf1 #2
- GFP, % of control: 73.4
- viability (ATP), % of control: 86.3

Further reagents follow:
Which result is listed for Col4a4 #1?
GFP, % of control: 95.8; viability (ATP), % of control: 101

For Col4a4 #2, how do the results read?
GFP, % of control: 46.2; viability (ATP), % of control: 31.7

Which result is listed for Col4a4 #3?
GFP, % of control: 109; viability (ATP), % of control: 114

For Mob3a #1, what does the deposit list?
GFP, % of control: 86.3; viability (ATP), % of control: 109

For Mob3a #2, what does the deposit list?
GFP, % of control: 85.3; viability (ATP), % of control: 96.2

What is on record for Or5k17 #1?
GFP, % of control: 46.4; viability (ATP), % of control: 58.4

With Or5k17 #2, what was measured?
GFP, % of control: 74.2; viability (ATP), % of control: 54

Which result is listed for Or5k17 #3?
GFP, % of control: 73.6; viability (ATP), % of control: 78.9

What is on record for Rph3al #1?
GFP, % of control: 65.5; viability (ATP), % of control: 52.9

What did the screen give for Rph3al #2?
GFP, % of control: 91.3; viability (ATP), % of control: 69.5

Which result is listed for Fam221a #1?
GFP, % of control: 60.3; viability (ATP), % of control: 82.3

How did the screen score Fam221a #2?
GFP, % of control: 87.7; viability (ATP), % of control: 78.9

Which result is listed for Fam221a #3?
GFP, % of control: 79.3; viability (ATP), % of control: 86.2

With Plaur #1, how do the results read?
GFP, % of control: 60.5; viability (ATP), % of control: 42.2

With Plaur #2, what does the deposit list?
GFP, % of control: 87.7; viability (ATP), % of control: 60.7

With Plaur #3, how do the results read?
GFP, % of control: 75.5; viability (ATP), % of control: 77.5

For Chaf1b #1, how do the results read?
GFP, % of control: 89.2; viability (ATP), % of control: 107

What did the screen give for Chaf1b #2?
GFP, % of control: 63.1; viability (ATP), % of control: 66.2

With Chaf1b #3, what does the deposit list?
GFP, % of control: 44.7; viability (ATP), % of control: 54.2

With Qrfp #1, what does the deposit list?
GFP, % of control: 46.4; viability (ATP), % of control: 24.1

For Qrfp #2, how do the results read?
GFP, % of control: 17.6; viability (ATP), % of control: 34.2

What did the screen give for Qrfp #3?
GFP, % of control: 94.5; viability (ATP), % of control: 107

What is on record for Sh3gl3 #1?
GFP, % of control: 64.3; viability (ATP), % of control: 62.7

How did the screen score Sh3gl3 #2?
GFP, % of control: 43.5; viability (ATP), % of control: 51.1

Which result is listed for Sh3gl3 #3?
GFP, % of control: 51.1; viability (ATP), % of control: 75

With Neurl1b #1, what was measured?
GFP, % of control: 58.3; viability (ATP), % of control: 76.4

For Neurl1b #2, what was measured?
GFP, % of control: 71.5; viability (ATP), % of control: 72

What is on record for Neurl1b #3?
GFP, % of control: 168 (active); viability (ATP), % of control: 157

Which result is listed for Ap3b2 #1?
GFP, % of control: 92.4; viability (ATP), % of control: 136

With Ap3b2 #2, how do the results read?
GFP, % of control: 45.9; viability (ATP), % of control: 49.5

With Vangl1 #1, how do the results read?
GFP, % of control: 36.2; viability (ATP), % of control: 46

What is on record for Vangl1 #2?
GFP, % of control: 116; viability (ATP), % of control: 77.2

What did the screen give for Vangl1 #3?
GFP, % of control: 93.9; viability (ATP), % of control: 85.8
